Results: PubChem BioAssay AID504444 (National Center for Advancing Translational Sciences (NCATS), 2011)
Out of some 360,000 compounds screened, about 7,500 (2.1%) were called active. The inconclusive results got no clear call from the source; some entries with a clear call stand among them for comparison. Calls come from the whole dose curve; as a rule, active = well fitted inhibition curve with a large enough effect; inconclusive = small, poorly fitted or top-dose-only effect, or effect the other way; inactive = flat fitted curve, though single readings scatter. Potencies beside an inconclusive call are fits to weak or partial responses and may not hold up.

assay: Nrf2 qHTS screen for inhibitors; details: A549 ARE-Fluc reporter, luciferase luminescence, 18-24 h; series mostly up to 46 µM; note: nearly all actives have a fitted effect of over 60% in size
Outline: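 A549 ARE_Fluc cells, 5000/well, 5% FBS OPTI-MEM; compounds in dose-response, 18-24 h at 37 °C/5% CO2; CellTiter-Fluor viability read (Ex 405/Em 525), then BugLite luciferase luminescence = Nrf2 activity.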
Potency is the fitted concentration of half-maximal effect.

Row | Structure (SMILES) | Potency
1 | CCCCCCCCC#Cc1nc(C)ccc1OC | inconclusive: 25.9 µM [activator, partial curve]
2 | COc1cc(OC)c2c(=O)cc(-c3ccccc3)oc2c1 | inactive
3 | COc1cccc(CNC(=O)Cn2cc3c(n2)-c2c(oc(C(=O)N4CCOCC4)c2C)CC3)c1 | inconclusive: 18.4 µM [falling, single point]
4 | COc1ccc(NC(=O)/C(C#N)=C/c2c(C)nn(-c3ccc(F)cc3)c2Cl)cc1OC | inconclusive: 16.4 µM [falling, single point]
5 | COc1ccc(NC(=O)c2cc3ccccc3cc2O)cc1 | inconclusive: 29.1 µM [falling, single point]
6 | CS(=O)(=O)c1ccc2nc(NC3(C(F)(F)F)N=C4SCCN4C3=O)sc2c1 (stereo not given) | inconclusive: 0.651 µM [falling, partial curve, poor fit]
7 | O=c1c(C=Nc2cccc(C(F)(F)F)c2)c[nH]n1-c1cccc(Cl)n1 | inactive
8 | CCOC(=O)C1(C(N)=O)OC1(c1ccc(Cl)cc1)c1ccccc1Cl (stereo not given) | inconclusive: 16.4 µM [falling, partial curve, poor fit]
9 | CN(C)CCNC(=O)Cc1ccc(NC(=O)N2CCCCc3ccccc32)cc1 | inconclusive: 23.1 µM [activator, partial curve, poor fit]
10 | COc1ccc2cc(C(=O)N(C)Cc3ccccc3)[nH]c2c1 | inconclusive: 3.66 µM [activator, partial curve, poor fit]
11 | COc1ccc(NC(=O)CNc2cccc(C#N)c2)cc1Cl | inconclusive: 1.3 µM [falling, partial curve, poor fit]
12 | CCOC(=O)CSc1nnc(NC(=O)c2ccc3c(c2)OCO3)s1 | inconclusive: 5.17 µM [falling, partial curve, poor fit]
13 | CCN1CCN(S(=O)(=O)c2ccc(Cl)c(C(=O)NCCc3ccccc3)c2)CC1 | inconclusive: 20.6 µM [activator, single point]
14 | Clc1ccc2[nH]cc(-c3nnnn3-c3ccc4ccccc4c3)c2c1 | active: 18.4 µM
15 | O=C(Nc1ccccc1N1CCCCC1)c1cc(S(=O)(=O)N2CCOCC2)ccc1F | inconclusive: 16.4 µM [falling, partial curve]
16 | CC1=[N+](C)c2c(ccc3cccnc23)C1(C)C | active: 2.06 µM
17 | c1ccc(CSc2nnc(-c3ccco3)n2Cc2ccco2)cc1 | inconclusive: 29.1 µM [activator, single point]
18 | Cc1ccc(C(=O)c2cn(Cc3ccc(F)cc3)c3nc(C)ccc3c2=O)cc1 | inconclusive: 2.06 µM [falling, partial curve, poor fit]
19 | O=C(c1ccncc1)N1CCN(S(=O)(=O)c2ccc3ccccc3c2)CC1 | inconclusive: 18.4 µM [falling, partial curve, poor fit]
20 | Cc1ccc(NC(=O)C(OC(=O)c2ccc(NC(N)=O)cc2)c2ccccc2)cc1Cl (stereo not given) | inconclusive: 18.4 µM [falling, partial curve]

Row | Structure (SMILES) | Potency
21 | CC(=O)Nc1ccc(S(=O)(=O)N2CCN(c3cc(C)ccc3C)CC2)cc1 | inconclusive: 32.6 µM [falling, single point]
22 | CCOC(=O)N1CCN(c2cc(C)c(C(C)=O)cc2F)CC1 | inconclusive: 25.9 µM [falling, partial curve, poor fit]
23 | CCOC(=O)c1sc2nccc(OC)c2c1N=CNOC | inactive
24 | Cc1ccnc(NS(=O)(=O)c2ccc(NC(=O)c3cc(=O)c4ccc(C)c(C)c4o3)cc2)n1 | inactive
25 | CCOC(=O)c1c(C)nc(C)c2c(=O)oc3ccccc3c12 | inconclusive: 20.6 µM [activator, partial curve, poor fit]
26 | COc1ccc(CNC(=O)c2cc3c(=O)n(Cc4cccs4)ccc3nc2C)cc1 | inconclusive: 16.4 µM [falling, single point]
27 | Cc1ccc(-c2nc(-c3ccccn3)no2)cc1Cl | inconclusive: 0.326 µM [activator, full curve]
28 | N#C/C(=C\c1ccc(-c2ccccc2[N+](=O)[O-])o1)C(=O)Nc1nc(-c2cccs2)cs1 | inconclusive: 6.51 µM [falling, partial curve]
29 | COc1ccccc1CNC(=O)COc1cc2c(c3oc(=O)cc(C)c13)CCC(C)(C)O2 | inconclusive: 29.1 µM [falling, single point]
30 | COC(=O)C1=C(C)NC(=O)NC1c1ccc(-c2ccccc2Cl)o1 (stereo not given) | inconclusive: 18.4 µM [falling, single point]
31 | COC(=O)Cn1c(=NC(=O)c2cc(OC)c(OC)c(OC)c2)sc2cc(OC)ccc21 | inconclusive: 1.84 µM [falling, partial curve, poor fit]
32 | CCOc1ccc(NS(=O)(=O)c2ccc(C(=O)NNC(=O)c3ccccc3O)cc2)cc1 | inconclusive: 32.6 µM [falling, partial curve, poor fit]
33 | CCOC(=O)c1cc2c(=O)n3ccccc3nc2n(Cc2ccco2)c1=NC(=O)c1ccccc1OCC | inconclusive: 18.4 µM [falling, partial curve]
34 | Cc1cc(C(=O)Nc2ccc3[nH]ccc3c2)no1 | inconclusive: 1.64 µM [activator, full curve]
35 | O=C(Nc1nccs1)c1cn(-c2ccccc2)nc1-c1ccccc1 | inconclusive: 29.1 µM [falling, single point]
36 | COc1ccc(Oc2nc(C)cc(C)c2S(=O)(=O)c2ccc(C)cc2)cc1 | inconclusive: 18.4 µM [falling, partial curve, poor fit]
37 | CCn1cc2nc(SCc3cc(C)ccc3C)n(Cc3ccc(C)cc3)c(=O)c2n1 | inactive
38 | Cc1ccc(S(=O)(=O)n2ccc3c(OCCOCCNCc4ccc(F)cc4)cccc32)cc1 | inconclusive: 29.1 µM [falling, single point]
39 | Cc1oc(-c2ccccc2F)nc1Cn1c(SCc2ccccc2F)nc2ccncc21 | inconclusive: 29.1 µM [falling, single point]
40 | COc1ccc(OCCCn2c(CCNC(=O)C3CCCCC3)nc3ccccc32)cc1 | inconclusive: 20.6 µM [falling, partial curve, poor fit]

Twelve entries from above, sorted by count of non-hydrogen atoms, descending:
Row | Structure (SMILES) | Potency
33 | CCOC(=O)c1cc2c(=O)n3ccccc3nc2n(Cc2ccco2)c1=NC(=O)c1ccccc1OCC | inconclusive: 18.4 µM [falling, partial curve]
38 | Cc1ccc(S(=O)(=O)n2ccc3c(OCCOCCNCc4ccc(F)cc4)cccc32)cc1 | inconclusive: 29.1 µM [falling, single point]
24 | Cc1ccnc(NS(=O)(=O)c2ccc(NC(=O)c3cc(=O)c4ccc(C)c(C)c4o3)cc2)n1 | inactive
32 | CCOc1ccc(NS(=O)(=O)c2ccc(C(=O)NNC(=O)c3ccccc3O)cc2)cc1 | inconclusive: 32.6 µM [falling, partial curve, poor fit]
28 | N#C/C(=C\c1ccc(-c2ccccc2[N+](=O)[O-])o1)C(=O)Nc1nc(-c2cccs2)cs1 | inconclusive: 6.51 µM [falling, partial curve]
37 | CCn1cc2nc(SCc3cc(C)ccc3C)n(Cc3ccc(C)cc3)c(=O)c2n1 | inactive
21 | CC(=O)Nc1ccc(S(=O)(=O)N2CCN(c3cc(C)ccc3C)CC2)cc1 | inconclusive: 32.6 µM [falling, single point]
35 | O=C(Nc1nccs1)c1cn(-c2ccccc2)nc1-c1ccccc1 | inconclusive: 29.1 µM [falling, single point]
30 | COC(=O)C1=C(C)NC(=O)NC1c1ccc(-c2ccccc2Cl)o1 (stereo not given) | inconclusive: 18.4 µM [falling, single point]
22 | CCOC(=O)N1CCN(c2cc(C)c(C(C)=O)cc2F)CC1 | inconclusive: 25.9 µM [falling, partial curve, poor fit]
23 | CCOC(=O)c1sc2nccc(OC)c2c1N=CNOC | inactive
34 | Cc1cc(C(=O)Nc2ccc3[nH]ccc3c2)no1 | inconclusive: 1.64 µM [activator, full curve]
